# Binding screen against folded nucleic acids

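Each compound is printed as two spots on a slide made to bind it covalently, so it has no test concentration; the read-out is fluorescence of the bound, labelled oligonucleotide. For the PreQ1, TPP and SAM-II riboswitches the laboratory earlier reported (doi:10.1038/s41467-019-09493-3) 1 µM RNA, 2 h, and a rule that included a mean Z-score above 3 (spot signal-to-noise against the whole library), a score well above that on a control array, and duplicate spots agreeing (coefficient of variation under 100). The data file gives only the calls; its cut-offs may differ, and compounds hitting several targets are kept. These are primary screening calls, not affinities; a compound without a hit may have attached poorly or may still bind in solution.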 A compound is marked hit if it was called a hit and no hit if it was screened but was not. The compounds are a random part of those screened. A target missing from an entry has no call listed here.

Targets, with sequences 5′ to 3′:
SAM-II: SAM-II riboswitch RNA pseudoknot, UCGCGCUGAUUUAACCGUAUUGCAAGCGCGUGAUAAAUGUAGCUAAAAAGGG. About 21,000 compounds screened, about 200 hits.
TPP: TPP riboswitch RNA three-way junction, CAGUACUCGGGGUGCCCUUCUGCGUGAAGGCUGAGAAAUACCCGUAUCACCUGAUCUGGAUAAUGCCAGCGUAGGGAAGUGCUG. About 24,000 compounds screened, about 160 hits.
PreQ1: PreQ1 riboswitch RNA pseudoknot, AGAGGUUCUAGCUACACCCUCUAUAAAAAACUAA. From B. subtilis. About 24,000 compounds screened, about 170 hits.

For Cc1cc(C2CCC2)nc(N2CCC3(CC2)Nc2ccccc2NC3=O)n1 the calls were SAM-II: no hit; TPP: no hit; PreQ1: no hit.
For CCc1oc(C(N)=O)cc1Cn1nc(CC2CCNCC2)n(CC)c1=O the calls were SAM-II: no hit; TPP: no hit; PreQ1: no hit.
For CC(C)c1cc(C(=O)NCC(O)c2cccc(Oc3ccccc3)c2)n(C)n1 (stereo not shown) the calls were SAM-II: no hit; TPP: no hit; PreQ1: no hit.
For Nc1cc(NC(=O)c2cn(-c3ccccc3)nc2-c2ccccc2)cc(Oc2ccccc2)c1 the calls were SAM-II: hit; TPP: hit; PreQ1: no hit.
For O=C(NCCCCc1ccccc1)c1nn(-c2ccccc2F)nc1CO the calls were TPP: no hit; PreQ1: no hit.
For NCc1nc(O)c2nnn(Cc3ccccc3)c2n1 the calls were SAM-II: no hit; TPP: no hit; PreQ1: no hit.
For Cc1cccc(Nc2nc(C)c3ncn(-c4cccc(C)c4)c3n2)c1 the calls were SAM-II: no hit; TPP: no hit; PreQ1: no hit.
For CCN(CC)C(=O)[C@@H]1C[C@@H](N)CN1S(C)(=O)=O the calls were SAM-II: no hit; TPP: no hit; PreQ1: no hit.
For Nc1ccnc(N2CCCN(Cc3ccccc3F)CC2)n1 the calls were SAM-II: no hit; TPP: no hit; PreQ1: no hit.
For OCCn1nc(Cc2cccs2)nc1-c1ccc(Cn2cnnn2)cc1 the calls were SAM-II: no hit; TPP: no hit; PreQ1: no hit.
For Cc1ccccc1-n1cc(-c2ccccc2)c2c(NCCCN3CCOCC3)ncnc21 the calls were TPP: no hit; PreQ1: no hit.
For CC1C(=O)C(C)C(c2cc(Br)ccc2O)NC1c1cc(Br)ccc1O (stereo not shown) the calls were SAM-II: no hit; TPP: no hit; PreQ1: no hit.
For CCC(COC)NC(=O)C1(Oc2ccc(C)cc2)CCNCC1 (stereo not shown) the calls were SAM-II: no hit; TPP: no hit; PreQ1: no hit.
For C1CCc2nc3c(nc2C1)CCCC3 the calls were SAM-II: no hit; TPP: no hit; PreQ1: no hit.
For O=C1CC[C@H]2CN(S(=O)(=O)c3cccs3)CC[C@H]2N1CCCO the calls were SAM-II: no hit; TPP: no hit; PreQ1: no hit.
For O=C(NCCO)N1c2ccccc2Sc2ccccc21 the calls were SAM-II: no hit; TPP: no hit; PreQ1: no hit.
For CCOc1ccc(C2c3c(-c4ccccc4O)n[nH]c3C(=O)N2CCO)cc1OC (stereo not shown) the calls were TPP: no hit; PreQ1: no hit.
For Nc1ccc(Sc2nc3ccccc3s2)c(Cl)c1 the calls were SAM-II: no hit; TPP: no hit; PreQ1: no hit.
For Cc1ccc(-c2nnc(NC3CCCCC3)c3ccccc23)cc1S(=O)(=O)NCC1CCCO1 (stereo not shown) the calls were SAM-II: no hit; TPP: no hit; PreQ1: no hit.
For O=C(COCc1nc2cc(F)ccc2[nH]1)NCc1cc2n(n1)CCNC2 the calls were SAM-II: no hit; TPP: no hit; PreQ1: no hit.

The first 2 entries again:

* Cc1cc(C2CCC2)nc(N2CCC3(CC2)Nc2ccccc2NC3=O)n1 | SAM-II: no hit; TPP: no hit; PreQ1: no hit
* CCc1oc(C(N)=O)cc1Cn1nc(CC2CCNCC2)n(CC)c1=O | SAM-II: no hit; TPP: no hit; PreQ1: no hit

From ROBIN, a set of small-molecule microarray screens (doi:10.1002/anie.202211358).